Measurements published in PMC12005740.
Results are given in words; binding and its absence hold for the method and conditions named. In cells and extracts the contact can be indirect. Some results given as binding are weak or reduced against the parent protein; the word gives no strength. Blank lines part the entries; values can stand above or below the binder they belong to.

Columns and labels:
[1] = target: T1, Stimulator of interferon genes protein (STING) (mouse (endogenous in L929)) (UniProt Q3TBT3); experiment: co-IP; L929 cells stimulated with S-cddA (100 nM), ML323 (5 uM) or both for 1 or 2 h; IP lysis buffer; 1 mg/500 uL lysate with primary antibody overnight at 4 C, Protein A + G Agarose 4 h, TBS washes; Western blot
T1 sequence: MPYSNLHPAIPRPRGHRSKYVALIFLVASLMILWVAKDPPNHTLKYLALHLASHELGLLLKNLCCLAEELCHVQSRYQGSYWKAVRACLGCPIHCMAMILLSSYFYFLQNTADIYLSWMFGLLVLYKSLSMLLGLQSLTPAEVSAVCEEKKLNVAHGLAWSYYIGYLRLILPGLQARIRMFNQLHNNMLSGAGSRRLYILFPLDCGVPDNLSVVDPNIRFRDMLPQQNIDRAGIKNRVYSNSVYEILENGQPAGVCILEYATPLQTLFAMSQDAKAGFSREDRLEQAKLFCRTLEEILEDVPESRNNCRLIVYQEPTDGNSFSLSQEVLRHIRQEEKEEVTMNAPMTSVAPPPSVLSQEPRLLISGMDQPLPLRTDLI

[2] = target: T1, Stimulator of interferon genes protein (STING) (mouse (endogenous in L929)); experiment: condition: only cells without the combined ML323 + S-cddA treatment; co-IP; as a1, the samples of L929 cells that did not get ML323 combined with S-cddA (either alone)

binding [1]: binds
binding [2]: no binding
B1: SEC24C (protein, UniProt G3X972 1-1096)
chain: MNVNQSAPPVPPYGQNQPIYPGYHQSSYGGQPGPAAPATPYGAYNGPVPGYQQAPPQGVPRAPPSSGAPPASAAQVPCGQTTYGQFGQGDIQNGPSSTAQMQRVPGSQQFGPPLAPVVSQPAVLQPYGPPPTSTQVTAQLAGMQISGAVAQAPPPSGLGYGPPTSLASASGNFPNSGPYGSYPQSQAPPLSQAQGHPGVQPPLRSAPPLASSFTSPASGGPQMPSMTGLLPPGQGFGSLPVNQANHVSSPPAPALPPGTQMTGPPVPPPPPMHSPQQPGYQLQQNGSFGPARGPQPNYESPYPGAPTFGSQPGPPQPLPPKRLDPDAIPSPIQVIEDDRNNRGSEPFVTGVRGQVPPLVTTNFLVKDQGNASPRYIRCTSYNIPCTSDMAKQAQVPLAAVIKPLARLPPEEASPYVVDHGESGPLRCNRCKAYMCPLMTFIEGGRRFQCSFCSCVNDVPPQYFQHLDHTGKRVDAYDRPELSLGSYEFLATVDYCKNNKFPSPPAFIFMIDVSYNAIRTGLVRLLCEELKSLLDYLPREGGAEESAIRVGFVTYNKVLHFYNVKSSLAQPQMMVVSDVADMFVPLLDGFLVNVSESRAVITSLLDQIPEMFADTRETETVFAPVIQAGMEALKAAECAGKLFLFHTSLPIAEAPGKLKNRDDRKLINTDKEKTLFQPQTGTYQTLAKECVAQGCCVDLFLFPNQYVDVATLSVVPQLTGGSVYKYACFQVENDQERFLSDLRRDVQKVVGFDAVMRVRTSTGIRAVDFFGAFYMSNTTDVELAGLDGDKTVTVEFKHDDRLNEENGALLQCALLYTSCAGQRRLRIHNLALNCCTQLADLYRNCETDTLINYMAKFAYRAVLNSPVKTVRDTLITQCAQILACYRKNCASPSSAGQLILPECMKLLPVYLNCVLKSDVLQPGAEVTTDDRAYVRQLVSSMDVAETNVFFYPRLLPLTKSPLDSTAEPPAVRASEERLSSGDIYLLENGLNLFVWVGASVQQGVVQSLFNVSSFSQITSGLSVLPVLDNPLSKKVRGLIDSLRAQRMRYMKLIVVKQEDKLEMLFKHFLVEDKSLSGGASYVDFLCHMHKEIRQLLS

binding [1]: no binding
B2: Ubiquitin Specific Peptidase 1 (USP1) (enzyme, UniProt Q8BJQ2 1-784)
chain: MPGVIPSESNGLSRGSPSKKNRLSLKFFQKKETKRALDFTDSQENEEKTSEYRGSEIDQVVPAAQSSPVSCEKRENLLPFVGLNNLGNTCYLNSILQVLYFCPGFKTGVKHLFNIISRKKEALKDDSNQKDKGSCKEESLASYELICSLQSLIISVEQLQASFLLNPEKYTDELATQPRRLLNTLRELNPMYEGFLQHDAQEVLQCILGNIQETCQLLKKEEIKNLAELSGKVEEQSLQKEETGGITSTEIDSMRNTEDVKEQLPKGNWKRKSDSESSNVKKKVKLSRESQPLEENQRQTRSKRKAIGDTLEAAPKIIPKCVSESESAKPSQKKSKVKINWLKPSTKQPSILSKFCSLGKITTNQRSKGQPKEKEGDVEEDLEKYGSDHTANGGPESPGSSVTPVDSSEAKSGNKGAEQIGFELVEKLFQGQLVLRTRCLECESLTERREDFQDISVPVQEDELSKVEESSEISPEPKTEMKTLRWAISQFASVERIVGEDKYFCENCHHYTEAERSLLFDKMPEVITIHLKCFAASGLEFDCYGGGLSKINTPLLTPLKLSLEEWSTKPTNDSYGLFAVVMHSGITISSGHYTASVKVTDLNSLELDEGNFVVDQMCELGKPEPLTEEQARGTAGNYDDEVSIRVGGNAQPSKVLNKKNVEGIGLLGGQKSKADYELYNKASNPDKVVGTPFTDNRNSETNDTTNGTHESDRNKESSDQTGVNMNGLENKISYVVQSLKEYEGKWLLFDDSEVKVTEEKDFLNSLSPSTSPTSTPYLLFYKKL
